Measurements: patent publication US20180153922A1
These are yes or no findings as the source states them, for the method shown. In cells and extracts the contact can be indirect. Some binding calls cover weakened binding; strength is not graded here.

Sequences of proteins named here, by UniProt entry; tags and fusion partners are left off.
UniProt P56477: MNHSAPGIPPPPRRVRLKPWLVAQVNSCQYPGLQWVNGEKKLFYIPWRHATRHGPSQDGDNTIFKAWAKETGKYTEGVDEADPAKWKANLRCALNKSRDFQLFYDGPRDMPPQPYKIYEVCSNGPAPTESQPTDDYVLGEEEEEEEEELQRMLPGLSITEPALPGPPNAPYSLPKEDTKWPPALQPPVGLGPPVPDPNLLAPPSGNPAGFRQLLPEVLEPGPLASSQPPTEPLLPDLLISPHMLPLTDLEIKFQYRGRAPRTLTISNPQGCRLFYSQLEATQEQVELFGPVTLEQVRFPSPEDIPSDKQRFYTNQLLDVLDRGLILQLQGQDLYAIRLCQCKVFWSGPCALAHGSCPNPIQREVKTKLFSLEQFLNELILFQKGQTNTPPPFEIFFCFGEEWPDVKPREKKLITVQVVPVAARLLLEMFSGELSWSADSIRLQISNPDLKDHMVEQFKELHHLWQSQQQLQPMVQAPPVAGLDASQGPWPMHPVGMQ
UniProt Q8C2K1: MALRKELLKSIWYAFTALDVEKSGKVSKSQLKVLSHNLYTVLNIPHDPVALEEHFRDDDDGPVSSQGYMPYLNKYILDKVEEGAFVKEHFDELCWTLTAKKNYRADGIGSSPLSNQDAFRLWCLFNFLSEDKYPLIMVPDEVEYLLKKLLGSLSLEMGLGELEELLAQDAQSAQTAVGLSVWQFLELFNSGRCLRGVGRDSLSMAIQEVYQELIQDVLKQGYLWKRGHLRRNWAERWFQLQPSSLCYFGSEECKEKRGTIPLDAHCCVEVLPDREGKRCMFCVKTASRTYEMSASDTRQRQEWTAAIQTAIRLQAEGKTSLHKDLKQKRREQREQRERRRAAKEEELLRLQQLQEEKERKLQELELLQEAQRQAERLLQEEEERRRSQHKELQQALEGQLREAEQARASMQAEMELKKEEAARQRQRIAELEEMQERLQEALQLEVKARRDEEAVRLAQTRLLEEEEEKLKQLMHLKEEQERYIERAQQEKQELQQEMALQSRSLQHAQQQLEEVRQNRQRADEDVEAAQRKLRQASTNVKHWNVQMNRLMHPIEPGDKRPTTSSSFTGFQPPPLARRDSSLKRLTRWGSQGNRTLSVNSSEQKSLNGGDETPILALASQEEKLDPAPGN
UniProt Q6A028: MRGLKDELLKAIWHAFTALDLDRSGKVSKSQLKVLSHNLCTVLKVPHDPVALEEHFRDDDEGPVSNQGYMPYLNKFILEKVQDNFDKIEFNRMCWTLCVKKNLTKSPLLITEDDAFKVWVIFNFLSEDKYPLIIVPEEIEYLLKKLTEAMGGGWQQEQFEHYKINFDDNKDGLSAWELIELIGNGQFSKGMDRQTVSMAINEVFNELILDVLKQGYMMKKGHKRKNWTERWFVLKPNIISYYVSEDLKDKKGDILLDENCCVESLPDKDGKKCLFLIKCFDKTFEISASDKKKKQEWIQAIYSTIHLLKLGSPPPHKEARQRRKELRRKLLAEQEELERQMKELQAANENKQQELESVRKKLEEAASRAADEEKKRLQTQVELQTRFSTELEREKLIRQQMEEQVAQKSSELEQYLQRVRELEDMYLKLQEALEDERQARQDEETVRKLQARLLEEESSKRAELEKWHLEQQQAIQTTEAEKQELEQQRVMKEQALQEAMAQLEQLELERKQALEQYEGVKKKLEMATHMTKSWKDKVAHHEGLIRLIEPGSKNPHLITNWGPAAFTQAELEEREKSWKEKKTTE

Key:
[1] = target: endogenous IRF5 (interferon regulatory factor 5) in mouse B cells (mouse) (UniProt P56477); assay: co-immunoprecipitation
[2] = target: endogenous IRF5 (interferon regulatory factor 5) in mouse B cells (mouse) (UniProt P56477); assay: co-immunoprecipitation with anti-IRF5 antibody from nuclear extracts of B cells, Western blot

binding [1]	binding [2]	Substance
binds	binds	endogenous DEF6 in mouse B cells (from UniProt Q8C2K1 1-630)
binds	binds	endogenous SWAP-70 in mouse B cells (from UniProt Q6A028 1-585)
